# Most values lie at the floor of the assay. Slopes are relative: functional sequences can read slightly below zero.
# Test system: Saccharomyces cerevisiae PS128 hsf1 delta, HSF1(1-493) fusion
# Experiment: growth estimate (transactivation domain function in HSF1 fusion, heat-shock survival) (a.u. (slope of normalised read count over time)); higher = stronger growth at 37°C, i.e. more transactivation activity
# Details: library: random library
row,Substance,growth estimate
1,TSPERDLPTTGERSVQLVWR,< -0.25
2,TSPKVNHQHGGYSQDTGD,< -0.25
3,TSPPRKV,-0.245
4,TSR,0.183
5,TSRHYACYTVSG,< -0.25
6,TSRNCPARVHKRRKY,< -0.25
7,TSRWLVT,< -0.25
8,TSSRSSLQGVVPVSRMVSTD,< -0.25
9,TSTAPIIGRPPRPDSSQLNP,< -0.25
10,TSTGKARQARHAAAVNGVLV,< -0.25
11,TSTINPSI,< -0.25
12,TSTRSHLGLGNRHHGGVTGG,-0.243
13,TSVCPRFVCGLPRGVKLGCV,< -0.25
14,TSVPTRTLLRPDYLYDCLRN,< -0.25
15,TSVQVI,< -0.25
16,TSYGKVSG,< -0.25
17,TSYSSTPCFYDFTAAHRSQI,< -0.25
18,TTAATAGARIPSA,< -0.25
19,TTCLS,< -0.25
20,TTCSRVGWKIVGPHWTAGVP,-0.16
21,TTCSSPVSVAIMATLHRVQG,< -0.25
22,TTCVWAEDGRYQYG,< -0.25
23,TTDAYCLQALGLVGDEWLAN,< -0.25
24,TTDGVAGHGVFTAHSYLGTR,< -0.25
25,TTFKALAPWCR,< -0.25

# Looked up one by one from the list above (3):
row,Substance,growth estimate
14,TSVPTRTLLRPDYLYDCLRN,< -0.25
10,TSTGKARQARHAAAVNGVLV,< -0.25
21,TTCSSPVSVAIMATLHRVQG,< -0.25

# Continued.

row,Substance,growth estimate
1,TTGCRTLINDKTAI,< -0.25
2,TTGGVVGRNKSIAPSWCAKS,< -0.25
3,TTGRKRIVVLKFAISVRARG,< -0.25
4,TTGSV,< -0.25
5,TTGVLG,< -0.25
6,TTIAGYSLGVTSLASQAMGG,< -0.25
7,TTIGSGD,< -0.25
8,TTPILRSHYLEGDK,< -0.25
9,TTPSGRVCKEAQAIAGAPKL,< -0.25
10,TTQASSVGTLRTRVGTLIVG,< -0.25
11,TTRNPMLCKSPKSVSTGLVN,< -0.25
12,TTRYLCRGMVLCSQCCRRAV,< -0.25
13,TTSLLEQGGM,< -0.25
14,TTTF,< -0.25
15,TTTGR,< -0.25
16,TTTSAKLRNTEFHDPPAVSV,< -0.25
17,TTVC,< -0.25
18,TTVDHGIQMKQRGRSSTFAR,< -0.25
19,TTVEGTDEVPIRNFHGH,< -0.25
20,TTVGAPGHLV,< -0.25
21,TTVIGSTLPLRVINCLGAWG,< -0.25
22,TTVVLQLLAWGGHESVRKQY,< -0.25
23,TVATGRLTNMTAPMNSPVV,< -0.25
24,TVAVNCLDVMVALFMVEPRS,< -0.25
25,TVAVWWGRGVLNRYYSGRTQ,< -0.25

row,Substance,growth estimate
1,TVCPEVGQGREVGLATIGHL,< -0.25
2,TVDIRGTAHAPSTVHPTTVP,< -0.25
3,TVDKCDAILASLSGLADTSR,< -0.25
4,TVEWLRQDVRR,< -0.25
5,TVFGSRTAYGMRPSAVAASF,-0.246
6,TVGEECQNIV,< -0.25
7,TVGGFVSSDAYSAYQSSYWG,< -0.25
8,TVGKWRCYEIARVKRLTTGP,< -0.25
9,TVGLGSVVSRRRTVRHSLEA,< -0.25
10,TVGLTKRRRV,< -0.25
11,TVGT,< -0.25
12,TVGWRGTGVMALAHYKHAVA,< -0.25
13,TVGWWLGQAGKRSVDKNRGP,< -0.25
14,TVGYQKTDPIVTF,< -0.25
15,TVHLAVGVTLVKQLRARTGP,-0.248
16,TVHVGCLPFGWG,< -0.25
17,TVIRRCVRQSGQHGGTHVGP,-0.245
18,TVISRCTVAPA,< -0.25
19,TVIYGE,< -0.25
20,TVLAPRTVSLTLL,< -0.25
21,TVLARRD,< -0.25
22,TVLNKDRDHW,< -0.25
23,TVLQQDIVLYVFEHSTKPQG,< -0.25
24,TVLSICRP,< -0.25
25,TVLSTGPPS,< -0.25

row,Substance,growth estimate
1,TVMRDKNVIRNGAREICI,< -0.25
2,TVNGRRMVASYG,< -0.25
3,TVNLRGRRAWFASGRR,< -0.25
4,TVNSPMVCSPETISIN,< -0.25
5,TVPNINLPSVLSRTFGIRLG,< -0.25
6,TVPRVEEHDSVHVER,< -0.25
7,TVPRVIEFCNPD,-0.183
8,TVPWKPAKHYGTADSLHEAS,-0.25
9,TVQASGPAIQVVSENAELNQ,< -0.25
10,TVRDIK,< -0.25
11,TVRHTHSKSLLGLLWNVGLF,< -0.25
12,TVRTAISRINLRPLNSLSLS,< -0.25
13,TVRVDHDHSKEKRGISLSDR,< -0.25
14,TVSEGDQDEVRIGLCVIESI,< -0.25
15,TVSEQA,< -0.25
16,TVSQSHGYPCETQVGLRPLP,-0.243
17,TVSSVLTPSLQEFDKPFSHV,< -0.25
18,TVT,< -0.25
19,TVTDVQY,< -0.25
20,TVTSP,< -0.25
21,TVVERWECGPNFGCVVGYFS,< -0.25
22,TVVHVHIWFGPLAVLLPFPA,< -0.25
23,TVVRADALVVA,< -0.25
24,TVVRRVLNQSTGRWCCRICV,< -0.25
25,TVVVLHSLRELERGALVAAA,< -0.25

row,Substance,growth estimate
1,TVVVSDLGGSDQLETAIPTL,< -0.25
2,TVVYLKYVTHQNLIHPVRGR,< -0.25
3,TVWRSLASLSLFMTRPSLTT,< -0.25
4,TVWVSLKCRRARLRAQPARS,< -0.25
5,TVYLGNETSPLECCKLVPEC,< -0.25
6,TWDLTFSCTDSQ,-0.237
7,TWERVIKGSRA,< -0.25
8,TWGATHR,< -0.25
9,TWGGSEPPASPPMSTFKPWR,< -0.25
10,TWGNRCYVSLKRRNRPSSMG,< -0.25
11,TWGNTCILGIACQLLLYLSW,-0.248
12,TWLSANTSRLRDTVRVWALE,< -0.25
13,TWNSNHGLESLYTVQVVARP,< -0.25
14,TWPGFGTRQC,< -0.25
15,TWQDESNDPYYRSLARLIYC,< -0.25
16,TWRSVSLHSVMARGLPAPVY,< -0.25
17,TWSHWGTSSWAD,< -0.25
18,TYFWLYLACSARLDCK,-0.25
19,TYHFTCLFWALESEMSVEML,< -0.25
20,TYLQGQLNSM,< -0.25
21,TYNNPGRKTIFFYSYGDTGP,< -0.25
22,TYQIALLFDLAR,< -0.25
23,TYRFFIADVEKPWLCYSGNS,< -0.25
24,TYRVQQAAGEEVRHSRDKG,< -0.25
25,TYTL,-0.231

row,Substance,growth estimate
1,TYVASKDTVLGRNASSAGYH,< -0.25
2,VAD,< -0.25
3,VADAPTRLHVRDEGLVIEGP,< -0.25
4,VAFDRCMPQR,< -0.25
5,VAFTAG,< -0.25
6,VAGKEYLTGRPN,< -0.25
7,VAGM,< -0.25
8,VAGSGVY,< -0.25
9,VAGSLQLQLGWR,< -0.25
10,VAGYVYRKV,< -0.25
11,VAHHQGCVTQHNISQKLGKG,< -0.25
12,VAHLPCGLSVAVMRGLLNIV,< -0.25
13,VAILSWYPEGTI,< -0.25
14,VAIQLLS,< -0.25
15,VAIRGRSPSRL,< -0.25
16,VAITCRTDPRHLLGE,< -0.25
17,VAL,< -0.25
18,VALCFGCCLGLRVDQGTVMI,< -0.25
19,VALHCLVGPVCT,< -0.25
20,VALSEYARLVNSAKFDPLGG,< -0.25
21,VAMGTERGCERFKLQWTRPL,< -0.25
22,VANERGKEGSGTTDVPAAQP,< -0.25
23,VANGSVHREQTFWCVHHG,< -0.25
24,VAPDNAELTGAAASAGTVTC,< -0.25
25,VAQSRNESGPT,< -0.25

row,Substance,growth estimate
1,VAREPRVGQQSASPSQSFVA,< -0.25
2,VARRGDYREIGGRKRSKGFA,< -0.25
3,VASAHE,< -0.25
4,VASCIINGF,-0.246
5,VASGW,-0.241
6,VASRVVLDRPDVSRVIGTVN,< -0.25
7,VASSGIKAAALVTTQSGFLR,< -0.25
8,VASTW,< -0.25
9,VATVNLATSNPATVSVLGVG,< -0.25
10,VAVALLGVIRQPDCFLKTAN,< -0.25
11,VAVI,< -0.25
12,VAVQSTRHPAGAD,< -0.25
13,VAVRWGSRGTVFPR,< -0.25
14,VAWKVSR,< -0.25
15,VAWLETYATHIRRFSTFGSA,< -0.25
16,VAWRNARRCGGASKT,< -0.25
17,VCAGIFATDNRVKPKPYRGA,< -0.25
18,VCCSAQGIVISGRF,< -0.25
19,VCCVGAESGSFREYRVAARY,< -0.25
20,VCGHSKSRPIGMGVTLSPVP,< -0.25
21,VCGREESPSGRRT,< -0.25
22,VCHFD,< -0.25
23,VCHVGSLTHQLF,< -0.25
24,VCI,< -0.25
25,VCIESNWSSLLWVKTLFGGS,< -0.25

row,Substance,growth estimate
1,VCIHGIKEKEMLKSRES,< -0.25
2,VCKKNIIDLPTEVLHLFACS,< -0.25
3,VCKVPTYPVGLILV,< -0.25
4,VCLTKTSESYPRV,< -0.25
5,VCMRIPMKKLVDFNKRHALV,-0.243
6,VCTLVRILAKSDGRQFPHVT,< -0.25
7,VCTRYVRGGSKHQLQHHRSN,< -0.25
8,VCVSVPLGMET,< -0.25
9,VDAAKSSRALGRSSTVSKLC,< -0.25
10,VDARAIPHWAR,< -0.25
11,VDGAIALDRIFSR,< -0.25
12,VDGCLSYHLSLPLDT,< -0.25
13,VDGIYKVW,< -0.25
14,VDGLSLRKTSTRCYDS,< -0.25
15,VDGQTSMVGIATVYSILLYG,< -0.25
16,VDGQTVCHGQASREVARDRL,< -0.25
17,VDGTLFASPRMV,-0.177
18,VDGWMFGDPTLDRRTGRNGA,-0.248
19,VDIPAGYVISGIWSDCCRLN,< -0.25
20,VDLLLRFNG,< -0.25
21,VDPSRLFPIQDRKRSCRDLT,< -0.25
22,VDQREPGDQPCGSAVSYSPF,-0.246

# Looked up above:
# Entry of VCKVPTYPVGLILV under growth estimate: < -0.25
# Entry of VDLLLRFNG under growth estimate: < -0.25
# Entry of VDPSRLFPIQDRKRSCRDLT under growth estimate: < -0.25
# Entry of VCMRIPMKKLVDFNKRHALV under growth estimate: -0.243
# Entry of VDGQTSMVGIATVYSILLYG under growth estimate: < -0.25
# Entry of VDGIYKVW under growth estimate: < -0.25

# Reference: the supplement of paper PMC5949888
